PubChem BioAssay AID504793 | Drosophila RNAi Screening Center, 2011
In all, the deposit lists about 23,000 reagents; this is an unselected part of those with a known target gene and a result. Over the whole deposit, 62 (0.27%) got an active call. 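Calls come from follow-up tests whose scores are not deposited, so confirmed genes may have low counts here; counts are not normalised per plate.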 Raw values vary from plate to plate and are shown uncorrected. Entries without a mark were called inactive. A plus sign joins genes that one reagent is predicted to hit.

Purpose: 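Genes required for cells to halt at G2/M after double-strand DNA breaks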 (primary screen)
Cell system: Drosophila S2R+ cells
Reagents: long dsRNA against Drosophila genes, about 0.25 µg dsRNA per well
Time to read-out: 4 days of dsRNA, then 4 hours of drug before read-out
Challenge: doxorubicin 0.5 µM for 4 hours to cause double-strand breaks, in cells also given a low, harmless dose of dsRNA against nbs to sensitise the assay
Read-out: 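Mitotic index as the number of phospho-histone H3-positive cells in each well following doxorubicin, given as raw counts without normalisation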
Direction: mitotic cells: higher = more cells in mitosis, weaker G2 arrest
Call rule: 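a call needs confirmation in secondary tests, with other dsRNAs and a check of mitotic timing without damage, not just a high primary count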
Meaning of the calls: active = confirmed in follow-up tests; inactive = not confirmed

CG31373 [DRSC16052] gave mitotic cells, replicate 1 = 5.
After knock-down of tctn + B9d2 [DRSC03160], the screen gave mitotic cells, replicate 1 = 4.
Silencing of CG12347 [DRSC14502] came out at: mitotic cells, replicate 1 = 6.
Depletion of Notum [DRSC09959] resulted in: mitotic cells, replicate 1 = 7.
AlaRS [DRSC01851] gave mitotic cells, replicate 1 = 9.
After knock-down of Exo84 [DRSC15965], the screen gave mitotic cells, replicate 1 = 6.
For CG31128 [DRSC13675], the entry reads mitotic cells, replicate 1 = 9.
Knock-down of CG9018 [DRSC08618] resulted in: mitotic cells, replicate 1 = 5.
After knock-down of DCTN2-p50 [DRSC07132], the screen gave mitotic cells, replicate 1 = 33.
Against loqs [DRSC02997], the entry reads mitotic cells, replicate 1 = 4.
Knock-down of CG18281 [DRSC11742] gave: mitotic cells, replicate 1 = 2.
Depletion of CG16762 [DRSC08493] gave: mitotic cells, replicate 1 = 5.
Silencing of CG31522 [DRSC12005] gave: mitotic cells, replicate 1 = 10.
Against CG31522 [DRSC29792], the entry reads mitotic cells, replicate 1 = 9.
Lipt2 [DRSC12338] gave mitotic cells, replicate 1 = 16.
For Lipt2 [DRSC22610], the entry reads mitotic cells, replicate 1 = 11.
After knock-down of CG32461 [DRSC11594], the record shows mitotic cells, replicate 1 = 25.
After knock-down of snoRNA:660 + Act57B [DRSC23472], the record shows mitotic cells, replicate 1 = 5.
Silencing of conu [DRSC07810] resulted in: mitotic cells, replicate 1 = 4.
After knock-down of CG13376 [DRSC17901], the record shows mitotic cells, replicate 1 = 12.
After knock-down of CG13344 [DRSC06378] the results were mitotic cells, replicate 1 = 5.
CG15194 (retired record) [DRSC19642] scored mitotic cells, replicate 1 = 9.
With knock-down of CG15194 (retired record) [DRSC19777] the results were mitotic cells, replicate 1 = 9.

As entered above.
Entry for CG12347 [DRSC14502] under “mitotic cells, replicate 1”: 6
snoRNA:660 + Act57B [DRSC23472], mitotic cells, replicate 1 → 5
